Measured values taken from publication PMC6692618.
No constants are given. Whether binding was seen depends on the method and setting. In cells and extracts the contact can be indirect. Some binding calls cover weakened binding; strength is not graded here.

Sequences of proteins named here, by UniProt entry; tags and fusion partners are left off.
UniProt P49407: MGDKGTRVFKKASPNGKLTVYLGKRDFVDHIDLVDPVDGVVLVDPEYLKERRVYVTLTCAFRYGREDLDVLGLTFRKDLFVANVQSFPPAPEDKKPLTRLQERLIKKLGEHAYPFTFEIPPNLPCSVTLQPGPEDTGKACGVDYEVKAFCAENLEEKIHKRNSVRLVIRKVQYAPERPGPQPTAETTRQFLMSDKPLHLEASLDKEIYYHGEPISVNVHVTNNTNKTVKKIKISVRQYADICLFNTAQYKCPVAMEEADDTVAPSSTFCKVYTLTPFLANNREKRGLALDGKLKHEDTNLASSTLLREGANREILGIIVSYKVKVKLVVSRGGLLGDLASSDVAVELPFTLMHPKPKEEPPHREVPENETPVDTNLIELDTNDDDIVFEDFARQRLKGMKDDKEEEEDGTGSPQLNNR
UniProt Q13535: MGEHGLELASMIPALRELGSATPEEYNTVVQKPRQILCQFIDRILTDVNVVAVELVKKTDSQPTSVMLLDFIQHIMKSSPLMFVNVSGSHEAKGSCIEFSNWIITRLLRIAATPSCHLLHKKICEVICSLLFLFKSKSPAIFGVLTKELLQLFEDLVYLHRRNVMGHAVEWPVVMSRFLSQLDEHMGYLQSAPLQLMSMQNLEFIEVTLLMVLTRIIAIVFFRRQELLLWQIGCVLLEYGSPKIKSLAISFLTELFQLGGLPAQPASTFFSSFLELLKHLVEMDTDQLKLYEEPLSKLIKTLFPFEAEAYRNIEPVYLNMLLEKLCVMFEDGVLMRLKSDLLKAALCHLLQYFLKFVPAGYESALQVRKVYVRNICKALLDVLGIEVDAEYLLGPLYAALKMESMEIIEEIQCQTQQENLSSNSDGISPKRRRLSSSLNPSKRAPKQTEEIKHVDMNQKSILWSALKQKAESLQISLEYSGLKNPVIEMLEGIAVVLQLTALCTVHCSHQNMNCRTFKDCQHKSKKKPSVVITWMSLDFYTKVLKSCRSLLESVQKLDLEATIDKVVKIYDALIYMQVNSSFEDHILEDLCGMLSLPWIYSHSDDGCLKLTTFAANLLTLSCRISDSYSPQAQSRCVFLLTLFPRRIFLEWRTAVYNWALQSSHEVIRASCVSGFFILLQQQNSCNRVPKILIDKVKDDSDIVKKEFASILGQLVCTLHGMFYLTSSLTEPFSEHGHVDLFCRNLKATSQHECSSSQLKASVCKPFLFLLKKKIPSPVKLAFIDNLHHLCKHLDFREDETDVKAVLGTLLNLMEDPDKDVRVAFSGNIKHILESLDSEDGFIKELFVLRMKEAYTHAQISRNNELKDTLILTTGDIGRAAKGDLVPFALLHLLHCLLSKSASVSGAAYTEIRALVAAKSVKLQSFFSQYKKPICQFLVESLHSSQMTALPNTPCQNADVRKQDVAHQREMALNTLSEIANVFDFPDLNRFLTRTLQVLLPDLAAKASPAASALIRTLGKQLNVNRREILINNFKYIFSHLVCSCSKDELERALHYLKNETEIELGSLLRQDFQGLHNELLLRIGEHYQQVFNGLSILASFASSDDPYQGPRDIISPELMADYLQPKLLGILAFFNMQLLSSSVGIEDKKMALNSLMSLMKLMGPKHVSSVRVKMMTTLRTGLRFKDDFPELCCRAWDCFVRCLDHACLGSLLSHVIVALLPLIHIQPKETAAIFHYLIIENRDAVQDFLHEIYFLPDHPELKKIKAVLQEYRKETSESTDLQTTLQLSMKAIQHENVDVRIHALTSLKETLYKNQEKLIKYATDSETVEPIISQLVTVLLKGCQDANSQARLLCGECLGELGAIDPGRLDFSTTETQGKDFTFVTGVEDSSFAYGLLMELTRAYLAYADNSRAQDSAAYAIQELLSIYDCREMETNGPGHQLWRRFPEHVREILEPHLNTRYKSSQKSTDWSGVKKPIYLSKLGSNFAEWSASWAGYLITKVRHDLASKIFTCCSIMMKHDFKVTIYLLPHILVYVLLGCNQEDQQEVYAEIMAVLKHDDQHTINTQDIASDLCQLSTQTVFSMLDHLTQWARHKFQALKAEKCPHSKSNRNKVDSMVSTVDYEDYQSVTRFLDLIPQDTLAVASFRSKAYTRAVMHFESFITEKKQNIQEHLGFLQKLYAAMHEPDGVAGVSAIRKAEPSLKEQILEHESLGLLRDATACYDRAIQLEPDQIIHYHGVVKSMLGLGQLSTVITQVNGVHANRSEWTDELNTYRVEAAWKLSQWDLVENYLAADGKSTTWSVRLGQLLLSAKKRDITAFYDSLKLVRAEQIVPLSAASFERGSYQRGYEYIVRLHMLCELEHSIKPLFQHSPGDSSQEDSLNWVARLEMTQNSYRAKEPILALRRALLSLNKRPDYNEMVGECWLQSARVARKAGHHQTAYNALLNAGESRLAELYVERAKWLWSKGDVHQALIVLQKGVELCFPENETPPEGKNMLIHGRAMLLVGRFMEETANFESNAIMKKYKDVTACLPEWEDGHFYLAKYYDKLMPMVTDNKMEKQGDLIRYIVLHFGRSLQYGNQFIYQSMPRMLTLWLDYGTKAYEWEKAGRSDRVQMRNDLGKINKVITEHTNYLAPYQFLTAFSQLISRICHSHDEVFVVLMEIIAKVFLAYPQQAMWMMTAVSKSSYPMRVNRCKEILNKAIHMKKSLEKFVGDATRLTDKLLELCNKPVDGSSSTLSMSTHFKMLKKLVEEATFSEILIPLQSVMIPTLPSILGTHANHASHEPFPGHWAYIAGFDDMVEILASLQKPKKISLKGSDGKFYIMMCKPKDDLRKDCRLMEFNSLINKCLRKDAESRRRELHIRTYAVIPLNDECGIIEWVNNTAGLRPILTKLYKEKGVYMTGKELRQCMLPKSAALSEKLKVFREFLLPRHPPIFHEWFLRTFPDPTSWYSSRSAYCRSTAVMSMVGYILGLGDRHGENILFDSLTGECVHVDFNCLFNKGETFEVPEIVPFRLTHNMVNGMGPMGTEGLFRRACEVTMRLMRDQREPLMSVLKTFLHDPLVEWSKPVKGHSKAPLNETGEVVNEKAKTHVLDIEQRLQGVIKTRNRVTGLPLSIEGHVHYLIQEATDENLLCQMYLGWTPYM

Molecular target: β-arrestin1 (human (endogenous in H520 and H1299)) (UniProt P49407)
Assay: co-IP; RIPA lysates of H520 and H1299 cells, with and without radiation; anti-β-arrestin1 antibody (Santa Crus) with protein A and G sepharose beads overnight; three washes; western blotting

binding: binds
Substance: ATR (from UniProt Q13535 1-2644)
